Data reported in PubChem BioAssay AID638 (SRMLSC, 2007).
In all, about 1,300 compounds went through this assay and about 65 (5%) were called active.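 The calls were made as follows: active = growth inhibition reaching a set limit at one or more tested doses; inactive = the rest.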 This is one part of the list. Entries with a potency or affinity are not part of this list.

test: growth inhibition of wild-type E. coli, dose response, BW25113 wild type, OD615 (AID 638); settings: at 100 µM (top of the series) unless noted
Summary of the method: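 Assay system: E. coli BW25113 wild type. Doses: compound concentration series. Timing: 20 h compound exposure, 37 °C. Technique: OD615 absorbance. Medium: LB broth containing kanamycin at 50 µg/mL. Benchmarks: chloramphenicol at 30 µM final as inhibition control. Measure: IC50 from 4-parameter logistic, bounds fixed 0–100%.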

Row | SMILES | growth inhibition
1 | c1ccc(CSc2nnc(-c3ccco3)c(-c3ccco3)n2)cc1 | inactive: -2.9%
2 | Cc1cccc(Nc2nc(NCc3ccco3)nc(N3CCOCC3)n2)c1 | inactive: -6.73%
3 | CCOc1ccccc1NC(=O)c1cc(CC(C)C)oc1C | inactive: 5.67%
4 | Cc1ccc(OCc2nc(C#N)c(N3CCN(Cc4ccccc4)CC3)o2)cc1 | inactive: -9.19%
5 | COc1cc(C(=O)Nc2nc(-c3cccs3)cs2)cc(OC)c1OC | inactive: -9.75%
6 | Brc1ccc(CSc2nnc(-c3cnccn3)n2Cc2ccco2)cc1 | inactive: 4.47%
7 | COc1ccc(NS(=O)(=O)c2ccc3oc4ccccc4c3c2)cn1 | inactive: 13.9%
8 | CC1(C)CC2CC(C)(CN2C(=O)c2cc(-c3ccccc3O)on2)C1 (stereo not given) | inactive: -3.86%
9 | COc1ccccc1C1CC(c2ccc(Cl)cc2)Nc2ncnn21 (stereo not given) | inactive: 7.26%
10 | CCCCOc1[nH]c2nc(-c3ccco3)n(Cc3ccco3)c(=N)c2c1C#N | inactive: 5.8%
11 | CCOC(=O)Cc1csc(NC(=O)c2csc3c2CCCC3)n1 | inactive: 4.05%
12 | Cc1ccc(NC(=O)c2nnn(-c3cc(C)cc(C)c3)c2N)cc1 | inactive: -3.73%
13 | Cc1cc(N2CCCCCC2)nc(-c2ccccc2O)n1 | inactive: -1.48%
14 | COC(=O)c1[nH]c2ccc(C)cc2c1NS(=O)(=O)c1ccc(F)c(C)c1 | inactive: 5.83%
15 | Fc1ccc(CNc2nc(-c3ccco3)cc(C(F)(F)F)n2)cc1 | inactive: 8.92%
16 | Cc1cccc(-n2ncc3c(NCc4ccc5c(c4)OCO5)ncnc32)c1 | inactive: 5.75%
17 | CCOc1ccc(N(CC(=O)Nc2cccc(OC)c2)S(=O)(=O)c2c(C)noc2C)cc1 | inactive: -23.6%
18 | COc1ccc(Cl)cc1CN1CCN(c2nc(C)cc(C)c2C#N)CC1 | inactive: 12%
19 | CCOC(=O)c1nnn(-c2nonc2-n2cccc2)c1CN1CCC(C)CC1 | inactive: 12.2%
20 | CCCCC(=O)Nc1cccc(-c2nnc(-c3ccccc3)o2)c1 | inactive: 16.4%

For reference, part of the list above:
Row | SMILES | growth inhibition
2 | Cc1cccc(Nc2nc(NCc3ccco3)nc(N3CCOCC3)n2)c1 | inactive: -6.73%
3 | CCOc1ccccc1NC(=O)c1cc(CC(C)C)oc1C | inactive: 5.67%
4 | Cc1ccc(OCc2nc(C#N)c(N3CCN(Cc4ccccc4)CC3)o2)cc1 | inactive: -9.19%
5 | COc1cc(C(=O)Nc2nc(-c3cccs3)cs2)cc(OC)c1OC | inactive: -9.75%
6 | Brc1ccc(CSc2nnc(-c3cnccn3)n2Cc2ccco2)cc1 | inactive: 4.47%
7 | COc1ccc(NS(=O)(=O)c2ccc3oc4ccccc4c3c2)cn1 | inactive: 13.9%
8 | CC1(C)CC2CC(C)(CN2C(=O)c2cc(-c3ccccc3O)on2)C1 (stereo not given) | inactive: -3.86%
9 | COc1ccccc1C1CC(c2ccc(Cl)cc2)Nc2ncnn21 (stereo not given) | inactive: 7.26%
10 | CCCCOc1[nH]c2nc(-c3ccco3)n(Cc3ccco3)c(=N)c2c1C#N | inactive: 5.8%
11 | CCOC(=O)Cc1csc(NC(=O)c2csc3c2CCCC3)n1 | inactive: 4.05%
12 | Cc1ccc(NC(=O)c2nnn(-c3cc(C)cc(C)c3)c2N)cc1 | inactive: -3.73%
13 | Cc1cc(N2CCCCCC2)nc(-c2ccccc2O)n1 | inactive: -1.48%
14 | COC(=O)c1[nH]c2ccc(C)cc2c1NS(=O)(=O)c1ccc(F)c(C)c1 | inactive: 5.83%
15 | Fc1ccc(CNc2nc(-c3ccco3)cc(C(F)(F)F)n2)cc1 | inactive: 8.92%
16 | Cc1cccc(-n2ncc3c(NCc4ccc5c(c4)OCO5)ncnc32)c1 | inactive: 5.75%
17 | CCOc1ccc(N(CC(=O)Nc2cccc(OC)c2)S(=O)(=O)c2c(C)noc2C)cc1 | inactive: -23.6%
18 | COc1ccc(Cl)cc1CN1CCN(c2nc(C)cc(C)c2C#N)CC1 | inactive: 12%
19 | CCOC(=O)c1nnn(-c2nonc2-n2cccc2)c1CN1CCC(C)CC1 | inactive: 12.2%
20 | CCCCC(=O)Nc1cccc(-c2nnc(-c3ccccc3)o2)c1 | inactive: 16.4%

Continued.

Row | SMILES | growth inhibition
21 | N#Cc1ccc(CSc2nnc(-c3cccs3)n2-c2ccccc2)cc1 | inactive: 15.4%
22 | N#C/C(=C\c1ccco1)Sc1nc2ccccc2s1 | inactive: 9.99%
23 | CC(=O)Nc1nc2ccccc2n1Cc1ccccc1C | inactive: 2.76%
24 | O=C(Nc1ccc(Br)c(Cl)c1)c1ccco1 | inactive: 2.9%
25 | O=C(CCCOc1ccc(Cl)cc1Cl)N1CCN(c2ccccn2)CC1 | inactive: -2.42%
26 | CC1CCCN(S(=O)(=O)c2ccc(C(=O)Nc3nnc(-c4ccccc4Cl)o3)cc2)C1 (stereo not given) | inactive: 7.65%
27 | O=C(OC1CCc2ccccc2C1=O)c1ccccc1O (stereo not given) | inactive: 9.44%
28 | COc1cccc2sc(Nc3nc(-c4ccccn4)cs3)nc12 | inactive: -6.38%
29 | Cc1cccc(NC(=O)CSc2nnc(-c3cc(C)n(-c4ccccc4)c3C)o2)c1C | inactive: -5.48%
30 | CCCCc1ccc(C2C(C#N)=C(N)SC(N)=C2C#N)s1 | inactive: 11.2%
31 | CCCc1[nH]nc2c1C(c1ccc(OC)c(CSC3=NCCS3)c1)C(C#N)=C(N)O2 (stereo not given) | inactive: 3.91%
32 | CCOc1ccc(S(=O)(=O)Nc2cccc(Cl)c2)cc1 | active: 20%
33 | COc1ccccc1N1CCN(C(=O)c2cc(-c3cccc(Cl)c3)on2)CC1 | inactive: -5.12%
34 | CCOc1cc(S(=O)(=O)N2CCN(Cc3ccccc3)CC2)ccc1Br | inactive: -2.34%
35 | CCCCOC(=O)Nc1ccc(C(=O)OCCC)cc1 | inactive: 6.71%
36 | Cc1ccc(-n2c(C)cc(C3N=C(N)Nc4nc5ccccc5n43)c2C)c(C)c1 (stereo not given) | inactive: -3.91%
37 | CCOC(=O)C1CCN(C(c2cccnc2)c2c(NC(=O)c3ccco3)sc(C)c2C)CC1 (stereo not given) | inactive: 0.02%
38 | CCc1cc2c3c(c(=O)oc2cc1O)CCCC3 | inactive: -5.58%
39 | CCOc1cc(-c2c(C#N)c(N)nc3c2CCCC3C)ccc1O (stereo not given) | inactive: 19.8%
40 | O=C(Nc1cccc(C(F)(F)F)c1)N1CCC(c2nc(-c3ccc(F)cc3)no2)CC1 | inactive: 7.9%

Row | SMILES | growth inhibition
41 | O=C(Nc1ccc(Cl)c(Cl)c1)OCc1cccnc1 | inactive: 3.14%
42 | CC1(C)Cc2c(sc3c2c(=N)n(Cc2ccco2)c(=O)n3Cc2ccc(Cl)cc2)CO1 | inactive: 3.64%
43 | CCCOc1ccc2oc(=O)c3c(c2c1)CCCN3C(=O)CN1CCc2ccccc2C1 | inactive: 0.92%
44 | CC1=C(C(=O)OCC(C)C)C(c2cc3c(cc2Br)OCO3)NC(=O)N1C (stereo not given) | inactive: 12.5%
45 | CCCCc1ccc(Nc2nc(CCC)cc(=O)[nH]2)cc1 | inactive: -2.25%
46 | CCCOC(=O)c1ccc(Oc2cn[nH]c2-c2ccc(OCC)cc2O)cc1 | inactive: 8.01%
47 | c1ccc(CN(Cc2ccco2)C(c2ccncc2)c2nnnn2C2CCCC2)cc1 (stereo not given) | inactive: 6.5%
48 | COc1cc(NS(=O)(=O)c2ccc(OC)c(C)c2C)c(OC)cc1Cl | inactive: -16.7%
49 | CCOC(=O)c1c(CN2CCOCC2)n(-c2ccccc2)c2ccc(O)cc12 | inactive: 4.11%
50 | O=C(NCc1ccco1)C(C(=O)c1ccc(F)cc1)n1ccccc1=O (stereo not given) | inactive: 12.3%
51 | CC1CCc2c(C(=O)Oc3cccc(-n4cnnn4)c3)csc2C1 (stereo not given) | inactive: -6.31%
52 | CCCn1nnnc1NC(=O)CSc1ccc(Cl)cc1 | inactive: 16.7%
53 | CCCC(=O)c1ccc(N2CCCCCC2)c(F)c1 | inactive: -2.91%
54 | O=C1[C@H]2[C@@H](C(=O)N1c1cc(Cl)cc(Cl)c1)[C@]1(C(=O)Nc3ccccc31)N1CCC[C@@H]21 | inactive: 9.3%
55 | O=C(CSc1nnc2scc(-c3ccccc3)n12)Nc1nsc(-c2ccccc2)n1 | inactive: -9.04%
56 | COc1ccc(C(=O)Nn2cnc3scc(-c4cccs4)c3c2=O)c(O)c1 | inactive: -5.59%
57 | CC(C)C(C(=O)NCc1ccco1)N(C(=O)CNS(=O)(=O)c1ccc(Cl)cc1)C1CCCC1 (stereo not given) | inactive: -7.52%
58 | CCn1cc(C(=O)O)c(=O)c2cnc(N3CCN(C(=O)Nc4ccccc4)CC3)nc21 | inactive: 5.93%
59 | Cc1cc(N2CCCCC2)n2ncc(-c3ccccc3)c2n1 | inactive: 4.48%
60 | COc1ccc(CN(C(=O)CN2C(=O)C(C)Oc3ccccc32)C2CCCC2)c(OC)c1 (stereo not given) | inactive: -6.33%
